The series in a line: general procedure: Fmoc solid-phase peptide synthesis; rink amide resin (GL Biochem); hydrazine 2-chlorotrityl chloride resin (loading 0.5 mmol/g); HATU/DIPEA. To be noted: for conjugation yield: conjugation step, HPLC yield; for cyclisation yield: cyclisation step.

Consider Ac-CPIEDRPMK-NH2 [cCK9′-F], for which the conjugation yield (run 1) is 65.06%.
On the same count and under the same terms, as for Ac-CPIEDRPMK-NH2 [cCK9′-R], the figure is 33.85%; as for Ac-KSDSWHYWC-NH2 [cKC9′-F], 32.82%.
Turning to Ac-KSDSWHYWC-NH2 [cKC9′-R], the conjugation yield (run 1) was determined as 30.66%.
The same measure, in the same setting: as for Ac-KTPSPFDSHC-NH2 [cKC10′-F], the figure is 45.01%.
The same measure, in the same setting: the value for Ac-KTPSPFDSHC-NH2 [cKC10′-R] was 62.67%.
On to bicyclo-(CNSTKNLTFAMRSSGDYGEV)-DMAC, for which the cyclisation yield (run 1) was found to be 69% yield and the cyclisation yield (run 2) is on record as 32.5%.
In turn, bicyclo-(CSQGTFTSDYSKYLDSRRAQ)-DMAC returned a cyclisation yield of 65% yield.
In the case of bicyclo-(CSSLDEPGRGGFSSESKV)-DMAC, the cyclisation yield is 43% yield (run 1) and 43.7% (run 2).
On to bicyclo-(Dap-A-Hyp-C-t-A-E)-DMAC, for which the cyclisation yield (run 1) is on record as 65% and the cyclisation yield (run 2) was determined as 66%.
The substance cyclo(CNSTKNLTFAMRSSGDYGEV) came in with a cyclisation yield of 31%.
Turning to cyclo(CSSLDEPGRGGFSSESKV), the cyclisation yield was 68.8%.
Consider cyclo-(Ac-ACFALPKG-CONH2)-DMAC, for which the cyclisation yield (run 1) is listed as 48% yield and the cyclisation yield (run 2) was determined as 48.6%.
The like results for cyclo-(Ac-AKVTMTCSAS-CONH2)-DMAC were, in that order, 32% yield and 32.1%.
On to cyclo-(Ac-CDWLPK-CONH2)-DMAC, for which the cyclisation yield (run 1) is given as 31.9% yield and the cyclisation yield (run 2) is given as 32%.
On to cyclo-(Ac-ENPECILDKHVQRVM-CONH2)-DMAC, for which the cyclisation yield worked out at 35% yield.
cyclo-(Ac-GAQCAFLK-CONH2)-DMAC registered a cyclisation yield of 38% yield.
For the substance cyclo-(Ac-KAAAAACH-CONH2)-DMAC, the cyclisation yield is 52.2% yield (run 1) and 53.2% (run 2).
Turning to cyclo-(Ac-KAAAACH-CONH2)-DMAC, the cyclisation yield is, setting by setting: (run 1) 34% yield; (run 2) 34.4%.
Take cyclo-(Ac-KAAACH-CONH2)-DMAC: the cyclisation yield came to 47.27% yield (run 1) and 54% (run 2).
cyclo-(Ac-KGEAFQC-CONH2)-DMAC: the cyclisation yield worked out at 36.6% yield.
With cyclo-(Ac—NYRWRCKN-CONH2)-DMAC, the cyclisation yield (run 1) worked out at 32% yield and the cyclisation yield (run 2) is 28.3%.
As for cyclo-(CSQGTFTSDYSKYLDSRRAQ), the cyclisation yield came to 71.7%.

These data come from patent US20220213138A1 (UNIVERSITY OF HONG KONG, priority 2019, published 2022).
